Source: publication PMC11183095
Positions count from the first letter of the chain named. Results are given in words; binding and its absence hold for the method and conditions named. In cells and extracts the contact can be indirect. Some binding calls cover weakened binding; strength is not graded here. Where a sequence is shown, tags or fusion partners need not be part of it.

By UniProt entry, the sequences of proteins in these tests, tags left out.
UniProt P14618: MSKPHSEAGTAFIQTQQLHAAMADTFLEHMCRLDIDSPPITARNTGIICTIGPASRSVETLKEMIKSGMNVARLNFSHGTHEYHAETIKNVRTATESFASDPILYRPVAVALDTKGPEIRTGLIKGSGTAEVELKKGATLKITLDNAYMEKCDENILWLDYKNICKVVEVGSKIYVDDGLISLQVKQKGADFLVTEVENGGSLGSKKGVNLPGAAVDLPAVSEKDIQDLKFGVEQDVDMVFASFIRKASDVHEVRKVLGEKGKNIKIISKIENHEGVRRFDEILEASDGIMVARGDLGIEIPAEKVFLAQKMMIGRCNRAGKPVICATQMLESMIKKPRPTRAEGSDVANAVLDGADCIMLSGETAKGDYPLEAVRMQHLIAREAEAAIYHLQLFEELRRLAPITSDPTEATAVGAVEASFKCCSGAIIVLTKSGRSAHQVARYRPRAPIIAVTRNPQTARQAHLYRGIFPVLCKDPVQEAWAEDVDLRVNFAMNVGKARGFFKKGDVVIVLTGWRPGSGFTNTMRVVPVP

Key:
Test in all cases: co-IP; anti-Flag immunoprecipitation from A549 transfected with Flag-PGAM1 or its mutants for 48 h, western blot for PKM2; with or without PKM2 or HA-Src overexpression, EGF, FGF1 or PDGFA
[1] = molecular target: T1, Flag-PGAM1 Y133F (human) (UniProt P18669)
T1 sequence: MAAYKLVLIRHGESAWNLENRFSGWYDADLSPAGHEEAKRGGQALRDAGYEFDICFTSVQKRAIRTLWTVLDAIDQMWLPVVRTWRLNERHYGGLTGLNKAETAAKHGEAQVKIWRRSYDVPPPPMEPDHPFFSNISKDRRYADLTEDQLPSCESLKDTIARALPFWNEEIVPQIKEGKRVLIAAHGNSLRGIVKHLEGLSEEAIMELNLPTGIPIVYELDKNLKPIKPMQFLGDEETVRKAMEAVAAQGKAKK

[2] = molecular target: T2, Flag-PGAM1 Y26F (human) (UniProt P18669)
T2 sequence: T1 sequence with Y26F, F133Y

[3] = molecular target: T3, Flag-PGAM1 Y133E (human) (UniProt P18669)
T3 sequence: T1 sequence with F133E

[4] = molecular target: T4, Flag-PGAM1 Y142F (human) (UniProt P18669)
T4 sequence: T1 sequence with F133Y, Y142F

[5] = molecular target: T5, Flag-PGAM1 Y119E (human) (UniProt P18669)
T5 sequence: T1 sequence with Y119E, F133Y

[6] = molecular target: T6, Flag-PGAM1 Y92E (human) (UniProt P18669)
T6 sequence: T1 sequence with Y92E, F133Y

binding [1]: binds
binding [2]: binds
binding [3]: binds
binding [4]: binds
binding [5]: binds
binding [6]: binds
Substance: Pyruvate kinase M2 (PKM2), endogenous (from UniProt P14618 1-531) (enzyme)
